Laboratory results as given in US20250154202A1 (BIONTECH SE, priority 2022, published 2025).
Bridge positions count the residues as written; N and C are the ends. Square brackets hold non-standard residues; d marks the D form. Peptide text beside a SMILES is read from it.

System: anti-ALFA VHH
Assay: binding affinity to the anti-ALFA VHH (log(agonist) vs. response, variable slope)
Details: best-fit values

Compound | HillSlope
CC(=O)N[C@@H](CO)C(=O)N[C@@H](CCCNC(=N)N)C(=O)N[C@@H](CC(C)C)C(=O)N[C@@H](CCC(=O)O)C(=O)N[C@H]1CCC(=O)NCCCC[C@@H](C(=O)N[C@@H](CCCNC(=N)N)C(=O)N[C@@H](CCCNC(=N)N)C(=O)N[C@@H](CC(C)C)C(=O)N[C@H](C(=O)N[C@@H](CCC(=O)O)C(N)=O)[C@@H](C)O)NC(=O)[C@H](CC(C)C)NC(=O)[C@H](CCC(=O)O)NC1=O [SD15192, Ac-Ser-Arg-Leu-Glu-(cyclo5)Glu-Glu-Leu-(cyclo8)Lys-Arg-Arg-Leu-Thr-Glu-NH2] (Ac-SRLEEELKRRLTE-NH2; lactam 5-8) | −0.9841
CC(=O)N[C@@H](CO)C(=O)N[C@@H](CCCNC(=N)N)C(=O)N[C@@H](CC(C)C)C(=O)N[C@@H](CCC(=O)O)C(=O)N[C@@H](CCC(=O)O)C(=O)N[C@@H](CCC(=O)O)C(=O)N[C@@H](CC(C)C)C(=O)N[C@@H](CCCNC(=N)N)C(=O)N[C@H]1CCCCNC(=O)CC[C@@H](C(N)=O)NC(=O)[C@H]([C@@H](C)O)NC(=O)[C@H](CC(C)C)NC(=O)[C@H](CCCNC(=N)N)NC1=O [SD15193, Ac-Ser-Arg-Leu-Glu-Glu-Glu-Leu-Arg-(cyclo9)Lys-Arg-Leu-Thr-(cyclo13)Glu-NH2] (Ac-SRLEEELRKRLTE-NH2; lactam 9-13) | −0.8859
CC(=O)N[C@@H](CO)C(=O)N[C@@H](CCCNC(=N)N)C(=O)N[C@@H](CC(C)C)C(=O)N[C@@H](CCC(=O)O)C(=O)N[C@H]1CCC(=O)NCCCC[C@@H](C(=O)N[C@@H](CCCNC(=N)N)C(=O)N[C@@H](CC(C)C)C(=O)N[C@H](C(=O)N[C@@H](CCC(=O)O)C(N)=O)[C@@H](C)O)NC(=O)[C@H](CCCNC(=N)N)NC(=O)[C@H](CC(C)C)NC(=O)[C@H](CCC(=O)O)NC1=O [SD15194, Ac-Ser-Arg-Leu-Glu-(cyclo5)Glu-Glu-Leu-Arg-(cyclo9)Lys-Arg-Leu-Thr-Glu-NH2] (Ac-SRLEEELRKRLTE-NH2; lactam 5-9) | −0.9926
CC(=O)N[C@@H](CO)C(=O)N[C@@H](CCCNC(=N)N)C(=O)N[C@@H](CC(C)C)C(=O)N[C@@H](CCC(=O)O)C(=O)N[C@H]1CC(=O)NCCCC[C@@H](C(=O)N[C@@H](CCCNC(=N)N)C(=O)N[C@@H](CC(C)C)C(=O)N[C@H](C(=O)N[C@@H](CCC(=O)O)C(N)=O)[C@@H](C)O)NC(=O)[C@H](CCCNC(=N)N)NC(=O)[C@H](CC(C)C)NC(=O)[C@H](CCC(=O)O)NC1=O [SD15196, Ac-Ser-Arg-Leu-Glu-(cyclo5)Asp-Glu-Leu-Arg-(cyclo9)Lys-Arg-Leu-Thr-Glu-NH2] (Ac-SRLEDELRKRLTE-NH2; lactam 5-9) | −0.7157
Ac-SRLEEELRRRLTE-NH2 [SD15197, Ac-Ser-Arg-Leu-Glu-Glu-Glu-Leu-Arg-Arg-Arg-Leu-Thr-Glu-NH2, reference compound] | −1.670

System: not listed separately
Assay: general procedure: Fmoc solid-phase peptide synthesis; Sieber Amide resin, 100-200 mesh; DIC/Oxyma + DIEA
Details: whole synthesis, UV214, scale of the general procedure 0.1 mmol, Acetate

Compound | final HPLC purity [%]
Ac-PSRLEEELRKRLTE-NH2 (lactam 6-10; SMILES CC(=O)N1CCC[C@H]1C(=O)N[C@@H](CO)C(=O)N[C@@H](CCCNC(=N)N)C(=O)N[C@@H](CC(C)C)C(=O)N[C@@H](CCC(=O)O)C(=O)N[C@H]1CCC(=O)NCCCC[C@@H](C(=O)N[C@@H](CCCNC(=N)N)C(=O)N[C@@H](CC(C)C)C(=O)N[C@H](C(=O)N[C@@H](CCC(=O)O)C(N)=O)[C@@H](C)O)NC(=O)[C@H](CCCNC(=N)N)NC(=O)[C@H](CC(C)C)NC(=O)[C@H](CCC(=O)O)NC1=O) | 100

Same assay, conditions: whole synthesis, UV214, scale of the general procedure 0.1 mmol, TFA

Compound | final HPLC purity [%]
Ac-PSRLECEL[dC]RRLTE-NH2 (disulfide 6-9; SMILES CC(=O)N1CCC[C@H]1C(=O)N[C@@H](CO)C(=O)N[C@@H](CCCNC(=N)N)C(=O)N[C@@H](CC(C)C)C(=O)N[C@@H](CCC(=O)O)C(=O)N[C@H]1CSSC[C@H](C(=O)N[C@@H](CCCNC(=N)N)C(=O)N[C@@H](CCCNC(=N)N)C(=O)N[C@@H](CC(C)C)C(=O)N[C@H](C(=O)N[C@@H](CCC(=O)O)C(N)=O)[C@@H](C)O)NC(=O)[C@H](CC(C)C)NC(=O)[C@H](CCC(=O)O)NC1=O) | 100
Ac-PSRLEEELKRRLTE-NH2 (lactam 5-9; SMILES CC(=O)N1CCC[C@H]1C(=O)N[C@@H](CO)C(=O)N[C@@H](CCCNC(=N)N)C(=O)N[C@@H](CC(C)C)C(=O)N[C@H]1CCC(=O)NCCCC[C@@H](C(=O)N[C@@H](CCCNC(=N)N)C(=O)N[C@@H](CCCNC(=N)N)C(=O)N[C@@H](CC(C)C)C(=O)N[C@H](C(=O)N[C@@H](CCC(=O)O)C(N)=O)[C@@H](C)O)NC(=O)[C@H](CC(C)C)NC(=O)[C@H](CCC(=O)O)NC(=O)[C@H](CCC(=O)O)NC1=O) | 99
Ac-PSRLEEELR[dK]RLTE-NH2 (lactam 6-10; SMILES CC(=O)N1CCC[C@H]1C(=O)N[C@@H](CO)C(=O)N[C@@H](CCCNC(=N)N)C(=O)N[C@@H](CC(C)C)C(=O)N[C@@H](CCC(=O)O)C(=O)N[C@H]1CCC(=O)NCCCC[C@H](C(=O)N[C@@H](CCCNC(=N)N)C(=O)N[C@@H](CC(C)C)C(=O)N[C@H](C(=O)N[C@@H](CCC(=O)O)C(N)=O)[C@@H](C)O)NC(=O)[C@H](CCCNC(=N)N)NC(=O)[C@H](CC(C)C)NC(=O)[C@H](CCC(=O)O)NC1=O) | 100
Ac-PSRLEKELRERLTE-NH2 (lactam 6-10; SMILES CC(=O)N1CCC[C@H]1C(=O)N[C@@H](CO)C(=O)N[C@@H](CCCNC(=N)N)C(=O)N[C@@H](CC(C)C)C(=O)N[C@@H](CCC(=O)O)C(=O)N[C@H]1CCCCNC(=O)CC[C@@H](C(=O)N[C@@H](CCCNC(=N)N)C(=O)N[C@@H](CC(C)C)C(=O)N[C@H](C(=O)N[C@@H](CCC(=O)O)C(N)=O)[C@@H](C)O)NC(=O)[C@H](CCCNC(=N)N)NC(=O)[C@H](CC(C)C)NC(=O)[C@H](CCC(=O)O)NC1=O) | 94
Ac-SRLEDELRKRLTE-NH2 (lactam 5-9; SMILES CC(=O)N[C@@H](CO)C(=O)N[C@@H](CCCNC(=N)N)C(=O)N[C@@H](CC(C)C)C(=O)N[C@@H](CCC(=O)O)C(=O)N[C@H]1CC(=O)NCCCC[C@@H](C(=O)N[C@@H](CCCNC(=N)N)C(=O)N[C@@H](CC(C)C)C(=O)N[C@H](C(=O)N[C@@H](CCC(=O)O)C(N)=O)[C@@H](C)O)NC(=O)[C@H](CCCNC(=N)N)NC(=O)[C@H](CC(C)C)NC(=O)[C@H](CCC(=O)O)NC1=O) | 95
Ac-SRLEEELKRRLTE-NH2 (lactam 5-8; SMILES CC(=O)N[C@@H](CO)C(=O)N[C@@H](CCCNC(=N)N)C(=O)N[C@@H](CC(C)C)C(=O)N[C@@H](CCC(=O)O)C(=O)N[C@H]1CCC(=O)NCCCC[C@@H](C(=O)N[C@@H](CCCNC(=N)N)C(=O)N[C@@H](CCCNC(=N)N)C(=O)N[C@@H](CC(C)C)C(=O)N[C@H](C(=O)N[C@@H](CCC(=O)O)C(N)=O)[C@@H](C)O)NC(=O)[C@H](CC(C)C)NC(=O)[C@H](CCC(=O)O)NC1=O) | 99
Ac-SRLEEELRKRLTE-NH2 (lactam 5-9; SMILES CC(=O)N[C@@H](CO)C(=O)N[C@@H](CCCNC(=N)N)C(=O)N[C@@H](CC(C)C)C(=O)N[C@@H](CCC(=O)O)C(=O)N[C@H]1CCC(=O)NCCCC[C@@H](C(=O)N[C@@H](CCCNC(=N)N)C(=O)N[C@@H](CC(C)C)C(=O)N[C@H](C(=O)N[C@@H](CCC(=O)O)C(N)=O)[C@@H](C)O)NC(=O)[C@H](CCCNC(=N)N)NC(=O)[C@H](CC(C)C)NC(=O)[C@H](CCC(=O)O)NC1=O) | 97
Ac-SRLEEELRKRLTE-NH2 (lactam 9-13; SMILES CC(=O)N[C@@H](CO)C(=O)N[C@@H](CCCNC(=N)N)C(=O)N[C@@H](CC(C)C)C(=O)N[C@@H](CCC(=O)O)C(=O)N[C@@H](CCC(=O)O)C(=O)N[C@@H](CCC(=O)O)C(=O)N[C@@H](CC(C)C)C(=O)N[C@@H](CCCNC(=N)N)C(=O)N[C@H]1CCCCNC(=O)CC[C@@H](C(N)=O)NC(=O)[C@H]([C@@H](C)O)NC(=O)[C@H](CC(C)C)NC(=O)[C@H](CCCNC(=N)N)NC1=O) | 98
